This note sets out measurements from patent US20250154279A1.

The chains behind the UniProt entries cited, without tags or fusion partners. Where a name states a change or a piece, a line headed by the entry shows the natural chain unless it says otherwise.
UniProt Q07011: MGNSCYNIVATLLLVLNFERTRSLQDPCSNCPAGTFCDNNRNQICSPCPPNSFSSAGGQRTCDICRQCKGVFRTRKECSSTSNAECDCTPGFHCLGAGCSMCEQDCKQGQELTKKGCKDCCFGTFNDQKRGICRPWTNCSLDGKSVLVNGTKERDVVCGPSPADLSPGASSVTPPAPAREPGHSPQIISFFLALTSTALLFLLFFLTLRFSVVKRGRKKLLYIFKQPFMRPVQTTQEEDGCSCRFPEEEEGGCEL

Results are given in words; binding and its absence hold for the method and conditions named. Some binding calls cover weakened binding; strength is not graded here. Where a sequence is shown, tags or fusion partners need not be part of it.

The target in assay [1] is human CD137 (recombinant antigen of the ELISA of Example 2 and the SPR of Example 3; construct not stated) (human) (UniProt Q07011). The assay is described as follows: ELISA.
For assay [2] the target is unchanged. Nature of the assay: antigen ELISA.

B1: BGA-9612 VHH-Fc (camelid anti-huCD137 VHH fused at the N terminal of human IgG1 Fc-null with a G4S linker) (VHH)
VHH: QVQLVESGGGTVQPGDSLRLSCAASGRTFDNYAVGWFRQAPGKERQYVGTYWSGYAHYGDFENNRFTISRDNAKNTVYLQMDNLKPEDTAVYYCAISLKYPMATVTPDYQGQGTQVTVSS
On to B1, for which the binding entry in assay [1] and in assay [2] was “binds” in each case.
